From US20150078996A1 (Merck Sharp & Dohme, published 2015)

Chains of the proteins cited; added tags and fusions are not shown. Lines headed by an entry give the natural chain unless they say otherwise; changes in a name come on top.
UniProt P08069: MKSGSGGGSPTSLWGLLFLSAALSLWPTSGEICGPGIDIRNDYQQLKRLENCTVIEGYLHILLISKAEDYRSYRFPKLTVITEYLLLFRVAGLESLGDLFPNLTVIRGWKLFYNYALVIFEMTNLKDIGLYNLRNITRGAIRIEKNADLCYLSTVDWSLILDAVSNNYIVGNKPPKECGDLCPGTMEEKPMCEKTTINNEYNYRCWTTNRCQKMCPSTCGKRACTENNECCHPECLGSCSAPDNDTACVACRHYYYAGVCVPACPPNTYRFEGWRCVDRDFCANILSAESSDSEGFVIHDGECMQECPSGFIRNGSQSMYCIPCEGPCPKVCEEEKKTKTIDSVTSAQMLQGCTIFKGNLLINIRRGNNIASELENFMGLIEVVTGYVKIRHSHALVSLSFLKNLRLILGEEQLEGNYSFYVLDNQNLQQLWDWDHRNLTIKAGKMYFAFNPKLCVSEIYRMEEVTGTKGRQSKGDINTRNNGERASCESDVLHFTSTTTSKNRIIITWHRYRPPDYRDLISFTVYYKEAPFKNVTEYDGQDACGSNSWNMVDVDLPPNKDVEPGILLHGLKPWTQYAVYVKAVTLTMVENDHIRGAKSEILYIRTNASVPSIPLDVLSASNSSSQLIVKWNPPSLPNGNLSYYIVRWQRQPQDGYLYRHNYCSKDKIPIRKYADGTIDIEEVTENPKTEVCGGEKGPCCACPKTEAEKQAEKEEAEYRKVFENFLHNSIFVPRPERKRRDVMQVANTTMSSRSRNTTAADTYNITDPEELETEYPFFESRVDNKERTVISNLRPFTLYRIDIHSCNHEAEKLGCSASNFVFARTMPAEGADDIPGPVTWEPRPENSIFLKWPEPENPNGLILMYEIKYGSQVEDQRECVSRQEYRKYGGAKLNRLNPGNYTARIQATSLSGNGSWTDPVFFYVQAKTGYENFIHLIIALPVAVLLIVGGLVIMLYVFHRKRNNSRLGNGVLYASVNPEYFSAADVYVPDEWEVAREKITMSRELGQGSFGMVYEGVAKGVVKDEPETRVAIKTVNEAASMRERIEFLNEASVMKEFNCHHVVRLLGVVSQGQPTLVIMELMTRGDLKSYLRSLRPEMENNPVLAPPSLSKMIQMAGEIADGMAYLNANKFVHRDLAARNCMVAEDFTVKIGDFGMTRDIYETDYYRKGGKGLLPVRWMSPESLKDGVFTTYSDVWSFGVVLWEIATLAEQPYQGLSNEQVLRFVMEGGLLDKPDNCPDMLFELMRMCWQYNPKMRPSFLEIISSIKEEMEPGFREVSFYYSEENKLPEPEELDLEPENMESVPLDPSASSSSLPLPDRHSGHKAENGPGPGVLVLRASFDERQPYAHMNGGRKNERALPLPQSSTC

Assays:
[1] = target: recombinant human IGF-1R extracellular domains (R&D Systems) (human) (UniProt P08069); assay: SPR (BIAcore X), 7.4 µg/ml over 439 RU soluble IGF-1R on a CM4 chip, sequential injections
[2] = target: recombinant human IGF-1R extracellular domains (R&D Systems) (human) (UniProt P08069); assay: SPR Biacore X, sequential injections
[3] = target: recombinant human IGF-1R extracellular domains (R&D Systems) (human) (UniProt P08069); assay: western blot after non-reducing SDS-PAGE
[4] = target: recombinant human IGF-1R extracellular domains (R&D Systems) (human) (UniProt P08069); assay: western blot after SDS-PAGE, non reducing conditions, 12B1 as probe

Measured: binding

B1: mouse monoclonal antibody 12B1 (anti-IGF-1R) (antibody, mouse IgG1, V domains shown)
VH: QVQLKESGPDLVAPSQSLSITCTVSGFSLTNYGVHWVRQFPGKGLEWLGVIWAGGNTNYNSALMSRLTISKDNSKSQVFLKMNSLQTDDTAVYYCAREYGSTYVAWFAHWGQGTLVTVSS
VL: ENVLTQSPAIMSASPGEKVTMTCGASSSVSSSFLHWYQQKSGASPKLWIYSTSNLASGVPTRFSGSGSGTSYSLTISSVEAEDAATYYCQQYSGYPLTFGAGTKLELK
notes: also called MAb 12B1; clone 12B1
binds: [1] | [2] | [3] | [4]

Results are given in words; binding and its absence hold for the method and conditions named. Binding calls can cover weak binding; strength is not graded here.
